Results are given in words; binding and its absence hold for the method and conditions named. Some binding calls cover weakened binding; strength is not graded here.

The chains behind the UniProt entries cited, without tags or fusion partners. Where a name states a change or a piece, a line headed by the entry shows the natural chain unless it says otherwise. Residues count along the entry.
UniProt Q9Y336: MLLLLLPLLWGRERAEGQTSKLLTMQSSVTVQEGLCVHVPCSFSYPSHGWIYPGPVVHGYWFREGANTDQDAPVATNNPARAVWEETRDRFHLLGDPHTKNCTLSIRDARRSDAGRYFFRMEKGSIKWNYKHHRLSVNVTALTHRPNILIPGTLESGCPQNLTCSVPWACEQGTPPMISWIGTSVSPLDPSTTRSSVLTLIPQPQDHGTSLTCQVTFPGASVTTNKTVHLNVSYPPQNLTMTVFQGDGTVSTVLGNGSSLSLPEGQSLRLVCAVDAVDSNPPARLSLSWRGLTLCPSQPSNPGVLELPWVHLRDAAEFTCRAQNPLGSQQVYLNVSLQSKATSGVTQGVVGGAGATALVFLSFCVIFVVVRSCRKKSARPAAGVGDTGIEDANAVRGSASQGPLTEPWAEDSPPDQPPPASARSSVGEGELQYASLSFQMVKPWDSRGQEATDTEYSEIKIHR
Siglec-9蛋白 (中性粒细胞): residues 18-463 of Q9Y336
重组人唾液酸结合免疫球蛋白样凝集素-9蛋白: residues 18-348 of Q9Y336

The record followed here is CN105367658A.

Experiment [1] deals with 重组人唾液酸结合免疫球蛋白样凝集素-9蛋白 (human) (UniProt Q9Y336). Nature of the experiment: ELISA, recombinant human Siglec-9 coated at 2 μg/mL, antibody diluted from 2 μg/mL in 14 steps. (In general: ELISA stands for enzyme-linked immunosorbent assay.)
A further experiment addresses Siglec-9蛋白 (中性粒细胞) (UniProt Q9Y336). Nature of the experiment: Western blot of neutrophil lysate supernatant, antibody at 2 μg/mL. Background: Immunoblotting shows a protein as a band on a membrane.

B1: 人源抗唾液酸结合免疫球蛋白样凝集素-9抗体IgG (antibody, V domains shown)
VH: EVQLVESGAEVKKPGASVKVSCKASGYIFTGYYMHWVRQAPGQGLEWMGWINPKSGGTNYAQKFQGRVTMTRDTSISTAYMELSRLRSDDTAVYYCVRDLGATGGDYWGQGTLVTVSS
VL: ELVLTQPPSVSVSPGQTARVTCSGDALPKKYAYWYQQKSGQAPILVIYGDNKRPSGIPERFSGSSSGTMATLTISGAQVEDEADYYCYSIDRSGNRVFGGGTRLTVLQ
In the case of B1, the binding entry (in experiment [1]; with Siglec-9蛋白 (中性粒细胞)) was “binds” throughout.
